What follows is the remainder of the data, with few or none of the targets with a hit. The data scatter; read single values as rough. The list shows a part of the results, in another mix than the full data.
compound: COC(=O)/C=C/c1ccccc1 [methyl cinnamate]; assay: log2 ratio of iodoacetamide-alkyne labeling of the cysteine site, DMSO over compound (competition); higher = stronger covalent engagement of the cysteine by the compound, active = 1 or more; conditions: 500 µM; treatment time 1 h; system: HEK293T cell lysate
Outline: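 After 1 h at ambient temperature with vehicle or electrophile (500 µM), HEK293T lysate (2 mg/mL) was labelled for 1 h with iodoacetamide alkyne and clicked to sCIP-TMT reagents. Pooled samples were trypsin-digested overnight at 37 °C, streptavidin-enriched, acid-eluted and analysed by Orbitrap Eclipse LC-MS/MS with FAIMS, then quantified in FragPipe over three replicates with duplicate channels. A cysteine's log2 competition ratio is its mean control-channel over mean compound-channel reporter intensity. Cysteines quantified in only one replicate were not included.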

Protein sequences, listed by entry. Tags and fused reporters are not part of them. Lines headed by an entry give the natural chain unless they say otherwise; changes in a name come on top.
UniProt P27816: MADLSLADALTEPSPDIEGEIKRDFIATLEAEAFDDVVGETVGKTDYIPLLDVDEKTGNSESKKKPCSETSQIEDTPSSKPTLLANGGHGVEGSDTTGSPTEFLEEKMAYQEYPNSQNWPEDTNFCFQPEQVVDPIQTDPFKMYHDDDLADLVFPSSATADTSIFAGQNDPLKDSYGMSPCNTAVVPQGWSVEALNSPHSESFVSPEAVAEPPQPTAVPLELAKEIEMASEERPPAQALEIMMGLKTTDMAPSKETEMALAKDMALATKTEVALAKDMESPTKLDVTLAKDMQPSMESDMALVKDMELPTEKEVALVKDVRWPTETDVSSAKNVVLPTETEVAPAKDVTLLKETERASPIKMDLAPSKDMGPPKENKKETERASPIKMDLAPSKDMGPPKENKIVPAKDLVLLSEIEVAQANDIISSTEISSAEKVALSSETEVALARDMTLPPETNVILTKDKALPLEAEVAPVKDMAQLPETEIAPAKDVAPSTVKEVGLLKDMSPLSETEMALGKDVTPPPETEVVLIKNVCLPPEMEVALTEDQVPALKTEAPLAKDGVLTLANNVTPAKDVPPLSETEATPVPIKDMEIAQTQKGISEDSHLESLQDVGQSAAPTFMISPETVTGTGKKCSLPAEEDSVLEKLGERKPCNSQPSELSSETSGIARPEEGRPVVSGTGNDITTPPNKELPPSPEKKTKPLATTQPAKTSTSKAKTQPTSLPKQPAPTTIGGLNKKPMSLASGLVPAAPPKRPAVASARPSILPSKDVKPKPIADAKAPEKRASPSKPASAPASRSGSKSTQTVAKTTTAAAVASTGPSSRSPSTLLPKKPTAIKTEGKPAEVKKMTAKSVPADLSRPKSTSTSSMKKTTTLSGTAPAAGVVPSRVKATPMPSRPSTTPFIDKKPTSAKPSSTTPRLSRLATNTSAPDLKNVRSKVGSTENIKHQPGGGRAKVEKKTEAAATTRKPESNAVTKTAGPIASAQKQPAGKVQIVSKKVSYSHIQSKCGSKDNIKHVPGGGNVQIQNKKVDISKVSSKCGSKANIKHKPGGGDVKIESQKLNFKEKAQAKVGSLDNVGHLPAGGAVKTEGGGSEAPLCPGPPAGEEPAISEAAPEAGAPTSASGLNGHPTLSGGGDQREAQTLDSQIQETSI
UniProt P24752: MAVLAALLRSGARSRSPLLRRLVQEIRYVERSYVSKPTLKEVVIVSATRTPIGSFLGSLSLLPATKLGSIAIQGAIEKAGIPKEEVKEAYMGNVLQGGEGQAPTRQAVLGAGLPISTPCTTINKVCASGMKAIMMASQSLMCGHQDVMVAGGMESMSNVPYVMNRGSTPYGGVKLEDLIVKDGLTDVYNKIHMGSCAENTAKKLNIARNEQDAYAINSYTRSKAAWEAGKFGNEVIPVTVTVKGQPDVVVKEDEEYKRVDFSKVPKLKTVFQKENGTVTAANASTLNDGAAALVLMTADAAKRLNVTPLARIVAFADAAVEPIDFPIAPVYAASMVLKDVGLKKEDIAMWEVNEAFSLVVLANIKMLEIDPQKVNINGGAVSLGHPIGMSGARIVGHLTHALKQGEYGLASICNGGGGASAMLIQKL
UniProt P22392, whole entry: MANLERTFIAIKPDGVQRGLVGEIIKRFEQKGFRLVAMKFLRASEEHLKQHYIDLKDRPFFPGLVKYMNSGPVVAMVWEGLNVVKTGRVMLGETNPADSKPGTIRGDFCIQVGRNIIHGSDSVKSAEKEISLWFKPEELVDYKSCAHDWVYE
UniProt P21291: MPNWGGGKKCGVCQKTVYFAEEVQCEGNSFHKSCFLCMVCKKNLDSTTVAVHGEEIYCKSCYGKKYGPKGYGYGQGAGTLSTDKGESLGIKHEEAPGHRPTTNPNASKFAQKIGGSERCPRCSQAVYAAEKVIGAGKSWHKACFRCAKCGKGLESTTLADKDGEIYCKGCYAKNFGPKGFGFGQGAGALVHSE
UniProt P21964: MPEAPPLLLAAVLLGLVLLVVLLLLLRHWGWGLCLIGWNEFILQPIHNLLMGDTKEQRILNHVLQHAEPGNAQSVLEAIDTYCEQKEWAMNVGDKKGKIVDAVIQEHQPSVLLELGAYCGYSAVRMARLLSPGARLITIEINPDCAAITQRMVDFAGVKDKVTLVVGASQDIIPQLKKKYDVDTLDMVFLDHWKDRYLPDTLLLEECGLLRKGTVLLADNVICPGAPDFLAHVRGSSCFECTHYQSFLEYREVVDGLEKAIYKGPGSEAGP
UniProt P26640: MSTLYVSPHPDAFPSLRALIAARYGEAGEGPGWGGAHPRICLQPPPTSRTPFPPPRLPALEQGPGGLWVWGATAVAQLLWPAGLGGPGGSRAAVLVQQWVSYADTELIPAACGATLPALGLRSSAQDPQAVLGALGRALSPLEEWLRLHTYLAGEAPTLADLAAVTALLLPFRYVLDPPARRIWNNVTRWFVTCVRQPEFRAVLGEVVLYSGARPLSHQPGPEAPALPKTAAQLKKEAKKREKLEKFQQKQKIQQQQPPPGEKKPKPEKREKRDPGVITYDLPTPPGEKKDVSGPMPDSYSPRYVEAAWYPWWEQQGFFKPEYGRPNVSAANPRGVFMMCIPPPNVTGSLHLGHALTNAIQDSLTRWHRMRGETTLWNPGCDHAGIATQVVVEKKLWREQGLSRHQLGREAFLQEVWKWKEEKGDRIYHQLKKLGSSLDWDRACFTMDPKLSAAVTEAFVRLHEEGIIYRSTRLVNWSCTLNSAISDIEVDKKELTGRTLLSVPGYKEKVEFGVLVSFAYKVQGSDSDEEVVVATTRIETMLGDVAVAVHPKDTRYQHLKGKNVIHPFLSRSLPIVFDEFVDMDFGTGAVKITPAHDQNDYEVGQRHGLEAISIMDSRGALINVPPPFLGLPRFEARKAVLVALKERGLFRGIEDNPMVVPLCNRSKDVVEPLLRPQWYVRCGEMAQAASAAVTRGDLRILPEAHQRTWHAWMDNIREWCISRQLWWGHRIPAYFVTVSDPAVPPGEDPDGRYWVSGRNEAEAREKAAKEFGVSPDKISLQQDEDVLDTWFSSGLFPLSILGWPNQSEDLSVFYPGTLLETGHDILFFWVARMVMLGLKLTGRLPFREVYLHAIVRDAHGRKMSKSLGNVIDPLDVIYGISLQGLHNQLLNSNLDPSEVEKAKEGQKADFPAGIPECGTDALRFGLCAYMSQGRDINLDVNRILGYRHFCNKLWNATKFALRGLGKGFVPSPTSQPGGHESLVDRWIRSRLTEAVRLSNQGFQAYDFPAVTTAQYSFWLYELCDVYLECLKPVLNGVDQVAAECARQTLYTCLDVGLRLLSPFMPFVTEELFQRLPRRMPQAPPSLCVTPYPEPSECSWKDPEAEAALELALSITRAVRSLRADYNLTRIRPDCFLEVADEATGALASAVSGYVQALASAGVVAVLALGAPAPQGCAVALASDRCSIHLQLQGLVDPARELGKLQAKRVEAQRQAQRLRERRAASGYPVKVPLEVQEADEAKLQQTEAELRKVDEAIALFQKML
UniProt P18583: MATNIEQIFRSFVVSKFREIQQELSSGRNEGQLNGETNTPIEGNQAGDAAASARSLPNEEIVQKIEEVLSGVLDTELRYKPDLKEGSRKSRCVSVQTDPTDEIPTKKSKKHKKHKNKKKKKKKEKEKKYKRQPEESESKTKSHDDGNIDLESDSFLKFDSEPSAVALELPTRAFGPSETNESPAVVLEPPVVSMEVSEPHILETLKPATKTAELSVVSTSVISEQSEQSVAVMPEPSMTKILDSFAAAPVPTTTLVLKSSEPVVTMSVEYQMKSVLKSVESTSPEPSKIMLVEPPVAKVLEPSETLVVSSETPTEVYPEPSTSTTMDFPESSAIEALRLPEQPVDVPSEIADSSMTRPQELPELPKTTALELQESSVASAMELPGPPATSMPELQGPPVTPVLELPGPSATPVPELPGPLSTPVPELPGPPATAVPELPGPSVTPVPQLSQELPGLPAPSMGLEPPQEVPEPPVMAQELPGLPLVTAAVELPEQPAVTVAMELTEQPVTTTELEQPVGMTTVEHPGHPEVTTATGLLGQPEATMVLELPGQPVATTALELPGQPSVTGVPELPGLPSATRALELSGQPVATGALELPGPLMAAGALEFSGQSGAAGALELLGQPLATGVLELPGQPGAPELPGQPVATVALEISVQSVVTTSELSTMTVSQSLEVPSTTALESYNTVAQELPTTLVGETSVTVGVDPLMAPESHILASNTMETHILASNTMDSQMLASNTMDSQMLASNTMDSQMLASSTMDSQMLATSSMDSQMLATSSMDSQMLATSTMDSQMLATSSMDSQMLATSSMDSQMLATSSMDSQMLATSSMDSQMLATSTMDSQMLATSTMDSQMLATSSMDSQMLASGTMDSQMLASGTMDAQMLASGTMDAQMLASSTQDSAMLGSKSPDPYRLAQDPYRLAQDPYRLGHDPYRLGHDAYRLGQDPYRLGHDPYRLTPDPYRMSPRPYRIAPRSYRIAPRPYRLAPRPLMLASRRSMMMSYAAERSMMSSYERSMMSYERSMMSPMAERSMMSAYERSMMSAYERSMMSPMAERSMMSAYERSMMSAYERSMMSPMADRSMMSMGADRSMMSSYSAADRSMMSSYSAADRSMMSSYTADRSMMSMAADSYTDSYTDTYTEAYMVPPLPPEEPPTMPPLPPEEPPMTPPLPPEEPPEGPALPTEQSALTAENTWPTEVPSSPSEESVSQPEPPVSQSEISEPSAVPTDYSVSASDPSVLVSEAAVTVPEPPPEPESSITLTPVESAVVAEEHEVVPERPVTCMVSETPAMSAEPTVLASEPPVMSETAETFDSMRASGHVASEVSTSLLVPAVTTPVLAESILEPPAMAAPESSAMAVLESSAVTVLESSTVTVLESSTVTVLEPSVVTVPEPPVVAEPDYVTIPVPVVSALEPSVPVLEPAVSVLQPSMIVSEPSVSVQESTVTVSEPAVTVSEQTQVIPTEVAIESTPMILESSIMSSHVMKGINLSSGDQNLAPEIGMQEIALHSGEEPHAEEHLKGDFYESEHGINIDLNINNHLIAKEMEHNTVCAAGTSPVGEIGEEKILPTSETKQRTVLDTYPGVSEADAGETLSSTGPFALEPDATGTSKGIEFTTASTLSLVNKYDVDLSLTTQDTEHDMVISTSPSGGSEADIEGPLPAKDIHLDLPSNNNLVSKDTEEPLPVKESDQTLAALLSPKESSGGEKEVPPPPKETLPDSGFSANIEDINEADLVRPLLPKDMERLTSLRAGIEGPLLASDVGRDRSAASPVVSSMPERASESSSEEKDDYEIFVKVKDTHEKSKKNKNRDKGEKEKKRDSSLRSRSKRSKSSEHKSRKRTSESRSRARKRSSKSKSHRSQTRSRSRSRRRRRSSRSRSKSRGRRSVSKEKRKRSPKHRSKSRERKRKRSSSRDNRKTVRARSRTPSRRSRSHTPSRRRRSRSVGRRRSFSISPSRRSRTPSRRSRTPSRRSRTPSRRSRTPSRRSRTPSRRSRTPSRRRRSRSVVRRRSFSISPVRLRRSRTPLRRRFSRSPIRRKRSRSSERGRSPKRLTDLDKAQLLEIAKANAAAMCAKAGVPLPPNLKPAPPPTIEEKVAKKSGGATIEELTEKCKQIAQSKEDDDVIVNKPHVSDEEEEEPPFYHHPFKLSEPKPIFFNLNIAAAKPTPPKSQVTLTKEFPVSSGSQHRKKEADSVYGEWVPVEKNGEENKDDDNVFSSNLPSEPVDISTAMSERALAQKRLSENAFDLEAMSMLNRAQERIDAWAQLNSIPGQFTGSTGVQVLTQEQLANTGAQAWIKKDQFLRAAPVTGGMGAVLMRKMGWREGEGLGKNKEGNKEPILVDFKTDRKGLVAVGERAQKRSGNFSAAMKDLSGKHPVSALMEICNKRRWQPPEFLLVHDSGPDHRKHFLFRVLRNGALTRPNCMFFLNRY
UniProt P17987, whole entry, looked up: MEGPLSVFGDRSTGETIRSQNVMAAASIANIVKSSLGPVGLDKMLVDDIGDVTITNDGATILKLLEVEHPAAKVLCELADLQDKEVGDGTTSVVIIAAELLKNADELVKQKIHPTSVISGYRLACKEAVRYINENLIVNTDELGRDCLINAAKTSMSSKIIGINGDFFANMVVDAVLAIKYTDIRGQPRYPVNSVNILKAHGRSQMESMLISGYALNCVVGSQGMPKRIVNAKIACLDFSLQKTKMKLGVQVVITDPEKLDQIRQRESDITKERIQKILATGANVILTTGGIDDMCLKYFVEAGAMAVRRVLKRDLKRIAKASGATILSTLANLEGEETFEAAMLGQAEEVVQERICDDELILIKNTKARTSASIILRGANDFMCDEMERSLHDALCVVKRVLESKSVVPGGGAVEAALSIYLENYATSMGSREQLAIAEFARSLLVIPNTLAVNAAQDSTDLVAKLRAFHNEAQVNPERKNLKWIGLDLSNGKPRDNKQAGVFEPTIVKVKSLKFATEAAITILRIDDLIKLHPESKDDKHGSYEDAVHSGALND

log2 ratio of iodoacetamide-alkyne labeling, inactive:
MAP4 C635 (UniProt P27816) 0.349
ECHS1 C111 (UniProt P30084) 0.2
ACAT1 C413 (UniProt P24752) 0.175
NME2 C145 (UniProt P22392) 0.00509
UniProt P26639_C630 0.251
LAP3 C376 (UniProt P28838) -0.0684
PML C389 (UniProt P29590) 0.35
CSRP1 C122 (UniProt P21291) -0.092
ACAT1 C126 (UniProt P24752) 0.265
CHML C582 (UniProt P26374) 0.0276
MCM3 C319 (UniProt P25205) 0.0663
COMT C238 (UniProt P21964) 0.0188
RASA1 C1002 (UniProt P20936) 0.162
UniProt P26639_C656 0.127
PLCG1 C976 (UniProt P19174) 0.433
UniProt P26367_C94 0.142
VARS C112 (UniProt P26640) -0.281
MCM3 C148 (UniProt P25205) 0.0595
LMNB1 C198 (UniProt P20700) 0.246
YWHAQ C94 (UniProt P27348) -0.0506
COMT C145 (UniProt P21964) 0.0785
RRM1 C790 (UniProt P23921) 0.194
GART C466 (UniProt P22102) 0.0586
UniProt P25398_C92 0.218
VARS C917 (UniProt P26640) 0.0822
GART C168 (UniProt P22102) 0.459
APEX1 C208 (UniProt P27695) -0.223
UniProt P23610_C62 0.112
HK1 C813 (UniProt P19367) 0.171
EIF2S2 C302 (UniProt P20042) 0.141
SON C2070 (UniProt P18583) 0.38
VARS C682 (UniProt P26640) 0.354
UniProt P25398_C106 0.195
ACAT1 C196 (UniProt P24752) 0.0906
TCP1 C76 (UniProt P17987) 0.0569
RPS3 C134 (UniProt P23396) 0.369
TCP1 C147 (UniProt P17987) 0.315

— the supplement of paper PMC11006884
